From PubChem BioAssay AID256 (DTP/NCI, 2004) come the findings set out here.

Molecules are shown by their SMILES. The list does not hold the whole screen: it is rich in T/C values a quarter to a half above the control, in often repeated tests (any T/C) and in doses without a T/C. Further doses and runs are listed elsewhere. T/C: endpoint of the treated group in % of that of the vehicle group. Some entries give survivors of the animals treated and no T/C: the source holds a T/C of zero for them, seemingly a mark for toxic or unscored doses. Some survivor counts are full or nearly so, which does not show that the dose was tolerated: the source hardly ever lists a survival T/C far under the control, and the zero likely stands for such cases as well. Survivors were counted at the toxicity check, usually on the fifth day, unless a day is given; later deaths do not show. Schedule codes are those of the source, read here as Q, the interval in days (D) or hours (H), X, the number of doses. Some doses were run more than once; the values are given in rising order. Where survival is the endpoint, the PubChem record calls one and a half times the control and up active, and a quarter to a half above the control has no call in these data; cut-offs in other NCI protocols can differ. Some T/C values carry the count of animals alive at the toxicity check (mostly the fifth day); where none is given, no animal had died by that day.

The subject of the test is CD2F1 mice, L1210 leukemia ip, survival T/C. Briefly: NCI In Vivo Anticancer Drug Screen. Data for tumor model L1210 Leukemia (intraperitoneal) in CD2F1 (CDF1) mice. Particulars: higher T/C = longer survival. In short, it runs like this: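 Implant tumor; dose compound or vehicle; measure endpoint in both groups; report treated divided by control.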
The mark [1] stands for this setting: T/C endpoint: median survival time, dose: 200.0 mg/kg/injection, schedule: Q01DX005 (ip), vehicle: distilled water + Tween-80.

For the compound `N=C(N)c1nn(C2OC(CO)C(O)C2O)c2nc[nH]c(=O)c12` (configuration not stated), the T/C is, setting by setting: (T/C endpoint: median survival time, dose: 6.25 mg/kg/injection, schedule: Q01DX005 (ip), vehicle: Klucel + Tween-80) 128 and 130 % of control; (T/C endpoint: median survival time, dose: 12.5 mg/kg/injection, schedule: Q01DX005 (ip), vehicle: Klucel + Tween-80) 136 and 142 % of control; (T/C endpoint: median survival time, dose: 25.0 mg/kg/injection, schedule: Q01DX005 (ip), vehicle: Klucel + Tween-80) 142 % of control. Moreover, the survivor count is, setting by setting: (T/C endpoint: median survival time, dose: 50.0 mg/kg/injection, schedule: Q01DX005 (ip), vehicle: Klucel + Tween-80) 0 of 6, 4 of 6, 5 of 6; (T/C endpoint: median survival time, dose: 100.0 mg/kg/injection, schedule: Q01DX005 (ip), vehicle: Klucel + Tween-80) 0 of 6; (T/C endpoint: median survival time, dose: 200.0 mg/kg/injection, schedule: Q01DX005 (ip), vehicle: Klucel + Tween-80) 0 of 6.
With `NCCNc1ccc(NCCN)c2c1C(=O)c1ccccc1C2=O`, the T/C (T/C endpoint: mean survival time, dose: 1.56 mg/kg/injection, schedule: Q01DX009 (ip), vehicle: distilled water + Tween-80) was 135 % of control and the T/C (T/C endpoint: mean survival time, dose: 3.13 mg/kg/injection, schedule: Q01DX009 (ip), vehicle: distilled water + Tween-80) is 147 % of control. Further, the survivor count runs as follows: (T/C endpoint: mean survival time, dose: 32.0 mg/kg/injection, schedule: Q01DX009 (ip), vehicle: acid diluted with saline) 1 of 6; (T/C endpoint: mean survival time, dose: 50.0 mg/kg/injection, schedule: Q01DX009 (ip), vehicle: distilled water + Tween-80) 0 of 6; (T/C endpoint: mean survival time, dose: 100.0 mg/kg/injection, schedule: Q01DX009 (ip), vehicle: distilled water + Tween-80) 0 of 6.
Turning to `O=C1C=CC(=O)N1c1ccc(Cl)cc1Cl`, the survivor count (T/C endpoint: mean survival time, dose: 50.0 mg/kg/injection, schedule: Q04DX003 (ip), vehicle: saline with Tween-80) was 0 of 3.
Take `O=C(O)CCC(=O)c1ccc(Cl)cc1`: the survivor count (T/C endpoint: median survival time, dose: 50.0 mg/kg/injection, schedule: Q04DX002 (ip), vehicle: saline with Tween-80) was 3 of 3; the survivor count (T/C endpoint: median survival time, dose: 100.0 mg/kg/injection, schedule: Q04DX002 (ip), vehicle: saline with Tween-80) is reported as 3 of 3; the survivor count (T/C endpoint: median survival time, dose: 400.0 mg/kg/injection, schedule: Q04DX002 (ip), vehicle: saline with Tween-80) is 3 of 3.
On to `C=C(N=[N+]=[N-])c1ccccc1`, for which the survivor count (T/C endpoint: mean survival time, dose: 200.0 mg/kg/injection, schedule: Q01DX009 (ip), vehicle: other) was 4 of 6.
As to `Cc1ccc(S(=O)(=O)N=P(c2ccccc2)(c2ccccc2)c2ccccc2)cc1`, the survivor count (T/C endpoint: mean survival time, dose: 200.0 mg/kg/injection, schedule: Q01DX009 (ip), vehicle: saline with Tween-80) was 6 of 6.
For the compound `NC(CSS(=O)(=O)O)=NCC1CCCCC1`, the T/C (T/C endpoint: mean survival time, dose: 25.0 mg/kg/injection, schedule: Q04DX002 (ip), vehicle: saline with Tween-80) is 125 % of control. Besides, the survivor count was 0 of 3 (T/C endpoint: mean survival time, dose: 50.0 mg/kg/injection, schedule: Q04DX002 (ip), vehicle: saline with Tween-80); 0 of 3 (T/C endpoint: mean survival time, dose: 100.0 mg/kg/injection, schedule: Q04DX002 (ip), vehicle: saline with Tween-80); 0 of 3 (T/C endpoint: mean survival time, dose: 200.0 mg/kg/injection, schedule: Q04DX002 (ip), vehicle: saline with Tween-80); 0 of 3 (T/C endpoint: mean survival time, dose: 400.0 mg/kg/injection, schedule: Q04DX002 (ip), vehicle: saline with Tween-80).
With `Nc1c(/C=C/c2cc3cc(C4=NCCN4)ccc3o2)[nH]c2cc(C3=NCCN3)ccc12`, the T/C is 130 % of control (T/C endpoint: median survival time, dose: 6.25 mg/kg/injection, schedule: Q01DX009 (ip), vehicle: Klucel (hydroxypropylcellulose) (HPC)); 137 % of control (T/C endpoint: median survival time, dose: 12.5 mg/kg/injection, schedule: Q01DX005 (ip), vehicle: Klucel (hydroxypropylcellulose) (HPC)); 139 % of control (T/C endpoint: median survival time, dose: 12.5 mg/kg/injection, schedule: Q01DX009 (ip), vehicle: Klucel (hydroxypropylcellulose) (HPC)); 132 % of control [9 of 10 alive] (T/C endpoint: median survival time, dose: 25.0 mg/kg/injection, schedule: Q01DX009 (ip), vehicle: Klucel (hydroxypropylcellulose) (HPC)). Besides, the survivor count was 7 of 10 (T/C endpoint: median survival time, dose: 50.0 mg/kg/injection, schedule: Q01DX009 (ip), vehicle: Klucel (hydroxypropylcellulose) (HPC)); 4 of 6 (T/C endpoint: median survival time, dose: 83.33 mg/kg/injection, schedule: Q01DX005 (ip), vehicle: Klucel (hydroxypropylcellulose) (HPC)); 1 of 6 (T/C endpoint: median survival time, dose: 100.0 mg/kg/injection, schedule: Q01DX005 (ip), vehicle: Klucel (hydroxypropylcellulose) (HPC)); 0 of 6 (T/C endpoint: median survival time, dose: 138.88 mg/kg/injection, schedule: Q01DX005 (ip), vehicle: Klucel (hydroxypropylcellulose) (HPC)); 0 of 6 (T/C endpoint: median survival time, dose: 200.0 mg/kg/injection, schedule: Q01DX005 (ip), vehicle: Klucel (hydroxypropylcellulose) (HPC)).
For the compound `N=c1c2ncn(Cc3cccc(C(F)(F)F)c3)c2ncn1O`, the survivor count is listed as 6 of 6 (T/C endpoint: mean survival time, dose: 100.0 mg/kg/injection, schedule: Q04DX003 (ip), vehicle: acetone); 0 of 6 (T/C endpoint: mean survival time, dose: 200.0 mg/kg/injection, schedule: Q04DX003 (ip), vehicle: acetone); 1 of 6 (T/C endpoint: mean survival time, dose: 400.0 mg/kg/injection, schedule: Q04DX003 (ip), vehicle: acetone).
As to `Nc1nc([Se]c2nc(N)nc3c2ncn3C2OC(CO)C(O)C2O)c2ncn(C3OC(CO)C(O)C3O)c2n1` (configuration not stated), the T/C reads like this: (T/C endpoint: median survival time, dose: 12.5 mg/kg/injection, schedule: Q01DX005 (ip), vehicle: distilled water + Tween-80) 130, 134, 148 % of control; (T/C endpoint: median survival time, dose: 25.0 mg/kg/injection, schedule: Q01DX005 (ip), vehicle: distilled water + Tween-80) 142, 144, 152, 156 % of control; (T/C endpoint: median survival time, dose: 50.0 mg/kg/injection, schedule: Q01DX005 (ip), vehicle: distilled water + Tween-80) 142, 156, 172, 178 % of control [5 of 6 alive]; (T/C endpoint: median survival time, dose: 100.0 mg/kg/injection, schedule: Q01DX005 (ip), vehicle: distilled water + Tween-80) 143, 145, 150, 151, 202 % of control; (T/C endpoint: median survival time, dose: 166.67 mg/kg/injection, schedule: Q01DX005 (ip), vehicle: distilled water + Tween-80) 139 % of control; under setting [1], 97 [5 of 6 alive], 148, 211 % of control. The survivor count is 2 of 5 under setting [1]; 4 of 6 (T/C endpoint: median survival time, dose: 277.78 mg/kg/injection, schedule: Q01DX005 (ip), vehicle: distilled water + Tween-80); 0 of 5 (T/C endpoint: median survival time, dose: 400.0 mg/kg/injection, schedule: Q01DX005 (ip), vehicle: distilled water + Tween-80).
With `C/C=C/C[n+]1cccc2ccccc21`, the survivor count runs as follows: (T/C endpoint: mean survival time, dose: 100.0 mg/kg/injection, schedule: Q04DX003 (ip), vehicle: saline sonified) 0 of 6; (T/C endpoint: mean survival time, dose: 200.0 mg/kg/injection, schedule: Q04DX003 (ip), vehicle: saline sonified) 0 of 6; (T/C endpoint: mean survival time, dose: 400.0 mg/kg/injection, schedule: Q04DX003 (ip), vehicle: saline sonified) 0 of 6.
For the compound `O=C1C=C(c2ccccc2)OC(=O)C1C(=O)c1ccccc1` (configuration not stated), the survivor count (T/C endpoint: mean survival time, dose: 400.0 mg/kg/injection, schedule: Q01DX001 (ip), vehicle: saline with Tween-80) is on record as 0 of 3.
